Measurements reported in PubChem BioAssay AID1224827 (NIAID, 2016).
Here is one part, drawn at random, of about 3,800 reagents. Of all reagents, about 2,200 (57%) got an active call. 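Active means a strong reporter change in either direction; calls are per siRNA, not per gene; qiagen siRNAs gave weaker effects.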 A number with no mark means an inactive call. The numbers tell different reagents against one gene apart. Not all columns of the deposit are shown.

- Aim: 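Retest primary hits on a TNF reporter with six siRNAs per gene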 (follow-up of hits)
- Cell system: RAW264.7 G9 mouse macrophage reporter clone
- Knock-down reagent: single siRNA against mouse genes, 100 nM siRNA
- Duration: siRNA for 2 days, then LPS about 16 h
- Treatment: bacterial lipopolysaccharide (LPS), 10 ng/ml, cells fixed after overnight (about 16 h) stimulation
- Measurement: 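TNF promoter reporter red fluorescence in nuclei, background subtracted, normalised per plate and to non-targeting control siRNA, as z-scores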
- Scale: TNF reporter z-score, mean: higher = stronger Tnf promoter reporter signal; gene median z, three same-vendor siRNAs: higher = stronger Tnf reporter signal for the gene
- Hit rule: 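Active siRNA: replicate-mean z-score of 2 or more, or -2 or less; no calls for control wells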

| target | reagent | TNF reporter z-score, mean | gene median z, three same-vendor siRNAs |
| --- | --- | --- | --- |
| Xrcc5 | 1 | -1.65 | -2.82 |
| Xrcc5 | 2 | -2.82 (active) | -2.82 |
| Xrcc5 | 3 | -3.25 (active) | -2.82 |
| Xrcc5 | 4 | 3.51 (active) | 0.412 |
| Xrcc5 | 5 | -0.0733 | 0.412 |
| Xrcc5 | 6 | -0.354 | 0.412 |
| 5330416C01Rik | 1 | -0.223 | -2.18 |
| 5330416C01Rik | 2 | -2.71 (active) | -2.18 |
| 5330416C01Rik | 3 | -2.8 (active) | -2.18 |
| 5330416C01Rik | 4 | 4.88 (active) | 1.87 |
| 5330416C01Rik | 5 | 2.53 (active) | 1.87 |
| 5330416C01Rik | 6 | -0.00565 | 1.87 |
| Dlx6 | 1 | 4.94 (active) | 0.604 |
| Dlx6 | 2 | 3.87 (active) | 0.604 |
| Dlx6 | 3 | -2.35 (active) | 0.604 |
| Or2n1d | 1 | -1.22 | -5.03 |
| Or2n1d | 2 | -5.4 (active) | -5.03 |
| Or2n1d | 3 | -5.36 (active) | -5.03 |
| Or2n1d | 4 | 0.232 | 0.232 |
| Or2n1d | 5 | 0.368 | 0.232 |
| Or2n1d | 6 | 0.229 | 0.232 |
| Gpr4 | 1 | 1.28 | -0.501 |
| Gpr4 | 2 | -0.19 | -0.501 |
| Gpr4 | 3 | -1.86 | -0.501 |
| Gpr4 | 4 | 5.26 (active) | 1.56 |
| Gpr4 | 5 | 1.56 | 1.56 |
| Gpr4 | 6 | -2.12 (active) | 1.56 |

Looked up above.
For “TNF reporter z-score, mean”, Dlx6 #1 reads 4.94 (active)
5330416C01Rik #2, TNF reporter z-score, mean = -2.71 (active)
For “TNF reporter z-score, mean”, Xrcc5 #2 is entered as -2.82 (active)
